Experimental data reported in article doi:10.1101/2024.01.16.575949.

Amino acid sequences for entries named in this document (tags omitted).
UniProt Q13547: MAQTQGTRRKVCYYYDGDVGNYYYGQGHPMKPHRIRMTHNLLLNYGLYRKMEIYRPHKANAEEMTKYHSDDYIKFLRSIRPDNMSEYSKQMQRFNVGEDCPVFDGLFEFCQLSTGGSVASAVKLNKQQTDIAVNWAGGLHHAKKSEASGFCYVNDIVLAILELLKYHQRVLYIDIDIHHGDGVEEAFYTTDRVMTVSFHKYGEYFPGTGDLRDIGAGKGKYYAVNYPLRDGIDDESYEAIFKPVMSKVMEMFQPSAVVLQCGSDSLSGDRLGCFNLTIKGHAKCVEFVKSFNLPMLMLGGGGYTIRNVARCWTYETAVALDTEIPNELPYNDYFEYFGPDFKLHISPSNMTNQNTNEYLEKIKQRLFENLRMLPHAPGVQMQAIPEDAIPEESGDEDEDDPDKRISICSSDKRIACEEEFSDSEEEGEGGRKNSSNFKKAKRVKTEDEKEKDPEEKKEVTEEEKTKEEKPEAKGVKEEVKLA

Tests used:
Experiment in all cases: affinity purification with mass spectrometry
[1] = target: T1, Halo-ARID4A (UniProt P29374)
T1 sequence: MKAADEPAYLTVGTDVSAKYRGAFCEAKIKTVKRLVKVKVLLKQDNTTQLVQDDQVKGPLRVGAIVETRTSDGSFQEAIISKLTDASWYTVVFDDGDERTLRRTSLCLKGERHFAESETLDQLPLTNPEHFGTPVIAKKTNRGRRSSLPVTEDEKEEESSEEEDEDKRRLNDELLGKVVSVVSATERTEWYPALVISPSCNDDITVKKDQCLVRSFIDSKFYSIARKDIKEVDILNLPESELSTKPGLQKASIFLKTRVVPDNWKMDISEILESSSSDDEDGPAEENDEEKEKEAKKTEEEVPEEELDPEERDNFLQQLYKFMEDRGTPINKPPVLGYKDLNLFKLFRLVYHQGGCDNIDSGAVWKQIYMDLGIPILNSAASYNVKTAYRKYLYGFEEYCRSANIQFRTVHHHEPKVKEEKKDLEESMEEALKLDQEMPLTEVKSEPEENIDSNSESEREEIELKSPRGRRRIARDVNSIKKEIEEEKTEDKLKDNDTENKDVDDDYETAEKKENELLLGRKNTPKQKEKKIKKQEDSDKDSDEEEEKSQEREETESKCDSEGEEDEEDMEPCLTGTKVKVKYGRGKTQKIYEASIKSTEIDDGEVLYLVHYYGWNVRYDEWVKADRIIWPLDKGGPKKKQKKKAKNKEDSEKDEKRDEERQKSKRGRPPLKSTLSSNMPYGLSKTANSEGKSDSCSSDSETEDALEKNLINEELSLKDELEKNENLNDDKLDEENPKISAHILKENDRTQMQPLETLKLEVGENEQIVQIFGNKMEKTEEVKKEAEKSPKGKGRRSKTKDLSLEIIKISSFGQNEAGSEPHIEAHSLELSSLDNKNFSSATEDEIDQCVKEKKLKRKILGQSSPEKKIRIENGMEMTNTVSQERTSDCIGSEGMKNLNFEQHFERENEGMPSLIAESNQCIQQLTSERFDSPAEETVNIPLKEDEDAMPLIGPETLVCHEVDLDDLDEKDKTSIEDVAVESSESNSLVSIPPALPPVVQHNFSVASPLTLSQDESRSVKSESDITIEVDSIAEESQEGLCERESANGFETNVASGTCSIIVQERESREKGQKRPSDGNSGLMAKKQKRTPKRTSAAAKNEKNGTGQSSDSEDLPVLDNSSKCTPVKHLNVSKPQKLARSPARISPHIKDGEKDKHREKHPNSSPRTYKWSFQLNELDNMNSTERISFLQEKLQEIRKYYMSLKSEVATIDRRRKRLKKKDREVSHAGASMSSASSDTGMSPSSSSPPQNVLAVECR

[2] = target: T2, Halo-BRMS1 (UniProt Q9HCU9)
T2 sequence: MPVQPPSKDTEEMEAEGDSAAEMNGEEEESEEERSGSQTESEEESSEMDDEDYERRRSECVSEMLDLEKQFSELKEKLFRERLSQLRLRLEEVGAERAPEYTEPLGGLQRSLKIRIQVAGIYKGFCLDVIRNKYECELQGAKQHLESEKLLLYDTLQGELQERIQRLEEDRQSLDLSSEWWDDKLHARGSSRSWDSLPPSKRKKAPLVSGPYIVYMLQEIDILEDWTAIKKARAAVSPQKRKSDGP

[3] = target: Halo-HDAC1 (UniProt Q13547)
[4] = target: T3, Halo-ING2 (UniProt Q9H160)
T3 sequence: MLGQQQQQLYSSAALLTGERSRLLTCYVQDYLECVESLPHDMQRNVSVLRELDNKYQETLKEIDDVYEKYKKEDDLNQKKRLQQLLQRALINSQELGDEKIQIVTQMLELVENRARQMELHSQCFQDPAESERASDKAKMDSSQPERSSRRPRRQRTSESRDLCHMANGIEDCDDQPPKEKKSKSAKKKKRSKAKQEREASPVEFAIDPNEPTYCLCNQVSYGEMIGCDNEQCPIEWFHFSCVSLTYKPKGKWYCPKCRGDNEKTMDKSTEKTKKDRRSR

[5] = target: T4, Halo-SAP30 (UniProt O75446)
T4 sequence: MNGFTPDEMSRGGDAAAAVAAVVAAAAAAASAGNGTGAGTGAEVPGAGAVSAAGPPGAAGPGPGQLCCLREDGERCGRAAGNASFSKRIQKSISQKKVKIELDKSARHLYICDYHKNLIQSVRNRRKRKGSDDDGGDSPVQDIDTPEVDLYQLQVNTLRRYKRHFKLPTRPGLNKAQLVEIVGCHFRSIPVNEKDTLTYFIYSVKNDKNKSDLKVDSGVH

B1: endogenous FAM60A (protein, UniProt Q9NP50 1-221)
chain: MFGFHKPKMYRSIEGCCICRAKSSSSRFTDSKRYEKDFQSCFGLHETRSGDICNACVLLVKRWKKLPAGSKKNWNHVVDARAGPSLKTTLKPKKVKTLSGNRIKSNQISKLQKEFKRHNSDAHSTTSSASPAQSPCYSNQSDDGSDTEMASGSNRTPVFSFLDLTYWKRQKICCGIIYKGRFGEVLIDTHLFKPCCSNKKAAAEKPEEQGPEPLPISTQEW
- binding [1]: no binding
- binding [2]: binds
- binding [3]: binds
- binding [4]: binds
- binding [5]: binds

These are yes or no findings as the source states them, for the method shown. In cells and extracts the contact can be indirect. A yes stands for co-enrichment or nearness to the bait. Other partners may have been found. For some assays here: A no says only that the protein was not detected with the bait.
